Source: PubChem BioAssay AID686943 (Drosophila RNAi Screening Center, 2013)
Assay: 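Search across the genome for regulators of signalling from receptor tyrosine kinase to ERK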 (primary screen). System: Drosophila S2R+ haemocyte-like cells expressing YFP-tagged ERK (Rolled). Reagent: long dsRNA against Drosophila genes. Treatment: insulin stimulation versus unstimulated cells; dose and duration not given. Measured: 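Per-plate z-scores of phospho-ERK immunostaining normalised to YFP-tagged ERK, measured with and without insulin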. Scale: replicate 1, z-score of dpERK with insulin and replicate 2, z-score of dpERK with insulin: higher = more active ERK per ERK-YFP after insulin; replicate 1, z-score of dpERK under basal conditions: higher = more basal active ERK per ERK-YFP; replicate 1, z-score of ERK-YFP with insulin: higher = more YFP-tagged ERK signal.
The deposit covers about 23,000 reagents; shown is an unselected part of those with a known target gene and a result. 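Extra replicates exist only for a retested subset of genes; insulin dose and duration not given; both raised and lowered dpERK matter.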 The numbers tell different reagents against one gene apart. Names joined by + are all predicted targets of the reagent. The record does not give: the amount of reagent, the time to read-out.

| gene | reagent no. | replicate 1, z-score of dpERK with insulin | replicate 2, z-score of dpERK with insulin | replicate 1, z-score of dpERK under basal conditions | replicate 1, z-score of ERK-YFP with insulin |
| --- | --- | --- | --- | --- | --- |
| CG4496 | 1 | 0.77 | 0.98 | 1.99 | -0.41 |
| CG34187 (retired record) + Trpm | 1 | 1.19 | 0.23 | 1.46 | -0.87 |
| wus (wurst) | 1 | 0.41 | 0.42 | 0.24 | 0.66 |
| CG30279 (retired record) | 1 | 0.73 | 0.19 | -0.32 | -1.85 |
| CG14742 | 1 | 0.24 | 0.76 | 0.28 | 0.01 |
| MtnD (Metallothionein D) | 1 | 0.49 | 0.5 | 0.13 | 0.34 |
| Rop (Ras opposite) | 1 | 0.48 | 0.21 | -0.33 | 0.49 |
| CG5910 | 1 | 0.13 | 0.14 | 0.38 | -0.27 |
| CG17344 | 1 | -0.19 | -1.98 | 0.21 | -0.43 |
| Dpit47 (DNA polymerase interacting tpr containing protein of 47kD) | 1 | -2.6 | -0.21 | -1.63 | -1.1 |
| CG7430 | 1 | 1.01 | 1.51 | 1.12 | -0.06 |
| Cad99C (Cadherin 99C) | 1 | -0.08 | -0.03 | 0.11 | 0.92 |
| Cad99C (Cadherin 99C) | 2 | 0.01 | -0.41 | -0.75 | 0.52 |
| Gr77a (Gustatory receptor 77a) | 1 | -0.25 | 1.06 | -0.7 | 0.29 |
| hdly (hadley) | 1 | 0.1 | -0.21 | 0.9 | -0.39 |
| mspo (M-spondin) | 1 | 0.5 | 0.03 | 0.4 | 0.36 |
| CG5989 | 1 | 0.56 | 0.87 | -0.22 | -0.28 |
| CG1902 | 1 | 0.7 | 0.42 | -0.54 | 0.17 |
| CG7320 | 1 | 0.67 | -0.38 | -0.08 | 0.4 |
| Gfrl (Glial cell line-derived neurotrophic family receptor-like) | 1 | -0.42 | 0.26 | -0.47 | 0.8 |
| Gfrl (Glial cell line-derived neurotrophic family receptor-like) | 2 | -0.11 | 0.51 | -0.63 | 0.2 |
| Gfrl (Glial cell line-derived neurotrophic family receptor-like) | 3 | 1.51 | 0.62 | 1.19 | 0.15 |
| Gfrl (Glial cell line-derived neurotrophic family receptor-like) | 4 | -0.28 | 0.19 | -0.17 | -0.5 |
| Gfrl (Glial cell line-derived neurotrophic family receptor-like) | 5 | -0.11 | -0.54 | -0.64 | 0.16 |
| CG43896 | 1 | 0.34 | -0.11 | -0.45 | 0.04 |
| CG43896 | 2 | 0.92 | 0.17 | 0.9 | 0.32 |
| CG43394 | 1 | -1.15 | 0.26 | -1.02 | -2.42 |
| CG43394 | 2 | -0.05 | 0.41 | -0.14 | 0.7 |
| SCAP (SREBP cleavage activating protein) | 1 | 0.27 | -1.1 | -0.99 | -0.81 |
| SCAP (SREBP cleavage activating protein) | 2 | 1.91 | 0.84 | -0.56 | -0.04 |
| by (blistery) | 1 | -0.45 | -0.8 | 0.78 | -0.29 |
| qvr (quiver) | 1 | 0.74 | 0.6 | -0.64 | -0.05 |
| CG13991 | 1 | 0.15 | -0.47 | -0.45 | 0.81 |
| Cyp6t1 (Cytochrome P450 6t1) | 1 | 0.46 | -0.42 | -0.39 | 0.08 |
| Prosbeta2R1 (Proteasome beta2 subunit-related 1) | 1 | 0.63 | 0.58 | -0.7 | 0.37 |
| ACXD (Adenylyl cyclase X D) | 1 | -0.14 | 1.06 | 0.59 | 0 |
| CG17124 | 1 | -0.5 | 0.45 | 0.12 | -0.46 |
| CG17752 | 1 | 0.69 | 0.67 | 1.39 | -0.05 |
| Clic (Chloride intracellular channel) | 1 | 0.95 | 0.54 | 0.05 | 0.3 |
| EDTP (Egg-derived tyrosine phosphatase) | 1 | 0.69 | 0.93 | 0.78 | 0.03 |
| Mgat4a | 1 | 1.01 | 0.28 | 0.83 | 0.29 |
| Mgat4a | 2 | -0.54 | 0.03 | 0.04 | 0.27 |
| dco (discs overgrown) | 1 | 1.82 | 0.24 | 2.08 | -0.42 |
| Lamtor2 + CG30120 | 1 | -0.4 | -0.43 | 0.93 | 0.17 |
| Lamtor2 + CG30120 | 2 | -0.66 | -1.15 | -0.54 | 0.11 |
| CG17780 + CG17781 | 1 | -0.17 | -0.1 | -0.28 | 0.22 |
| CG30278 | 1 | -0.83 | -0.51 | 0.03 | 1.22 |
| CG14402 | 1 | -0.48 | 0.23 | 1.45 | 1.01 |
| CanA1 (Calcineurin A1) | 1 | -0.47 | -0.1 | -0.49 | 0.59 |
| Ets96B | 1 | -0.54 | -0.25 | 0.71 | 0.9 |
| sug (sugarbabe) | 1 | 0.69 | -0.17 | 0.26 | -0.7 |
| CG3281 | 1 | 0.31 | -0.14 | 0.24 | -0.16 |
| DENR (Density regulated protein) | 1 | -0.22 | -1.05 | -0.05 | 0.07 |
| CheB53a (Chemosensory protein B 53a) | 1 | 0.07 | -0.37 | 1.31 | 0.3 |
| Fkbp39 (FK506-binding protein 39kD) | 1 | 0.95 | 0.63 | 2.53 | -2.69 |
| twy (twitchy) | 1 | 1.06 | 0.8 | 0.28 | 0.26 |
| ArgRS-m (Arginyl-tRNA synthetase, mitochondrial) | 1 | -0.29 | -1.1 | -1.1 | 0.41 |
